Data as given in PubChem BioAssay AID1224826 (NIAID, 2016)
Screen: 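Genes that change LPS-induced Tnf promoter activity in mouse macrophages when knocked down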 (primary screen). System: RAW264.7 G9 macrophages from mouse bearing reporters for p65 (GFP) and the Tnf promoter (mCherry). Reagents: siRNA pool against mouse genes, 100 nM. Timing: 16 h of LPS stimulation, after 2 days of siRNA transfection. Conditions: bacterial lipopolysaccharide (Salmonella minnesota R595), 10 ng/ml. Measured: 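Imaged Tnf reporter mCherry in nuclei, minus background, normalised per plate to the median and expressed as robust z-scores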. Scale: Tnf reporter robust z-score: higher = stronger Tnf promoter reporter signal after LPS; Tnf reporter intensity: higher = stronger Tnf promoter reporter signal. Hit rule: 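a well counts as active at a score of -1.3 or below (Tlr4 knock-down control median) or above 3 (raised signal); controls and wells holding fewer than 50 cells are excluded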. Calls: active = Tnf reporter clearly lowered or raised; inactive = no clear change in Tnf reporter.
Here is an unselected part of about 17,000 reagents. Of all reagents, about 1,110 (6.6%) are marked active. 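Active means lowered or raised reporter signal; replicate intensities are raw and not normalised per plate.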 Entries without a mark were called inactive. The numbers tell different reagents against one gene apart.

target gene,reagent,Tnf reporter robust z-score,fewer than 50 cells in well,"Tnf reporter intensity, replicate 1","Tnf reporter intensity, replicate 2"
Or51f1d,1,,fewer than 50 cells per well; well left out of calls,74.1,76.3
Sh2b1,1,0.86,enough cells in well,167,131
Fyco1,1,2.19,enough cells in well,339,299
Phex,1,0.37,enough cells in well,268,224
Sgce,1,0.7,enough cells in well,366,248
Selenoi,1,-1.36 (active),enough cells in well,135,61.5
Plcb1,1,0.59,enough cells in well,147,163
Rb1cc1,1,1.14,enough cells in well,373,320
Kcmf1,1,-0.43,enough cells in well,166,111
Prl7d1,1,-1.38 (active),enough cells in well,65.3,73.5
Rptn,1,-1.32 (active),enough cells in well,72.2,69.9
Fam234b,1,0.31,enough cells in well,233,334
Klk1b7-ps,1,,fewer than 50 cells per well; well left out of calls,143,46.1
Eogt,1,-0.65,enough cells in well,152,99.3
Uimc1,1,-0.71,enough cells in well,231,159
Dact1,1,-0.89,enough cells in well,158,163
Oma1,1,,fewer than 50 cells per well; well left out of calls,89.4,25.3
Cabp1,1,0,enough cells in well,133,179
Flnc,1,0.04,enough cells in well,160,160
Egr4,1,0.64,enough cells in well,272,287
Vmn2r89,1,,fewer than 50 cells per well; well left out of calls,57.1,42.4
Vmn2r89,2,-0.21,enough cells in well,119,76
Pcp4,1,0.64,enough cells in well,193,148
Atp5mg,1,0.15,enough cells in well,192,161
Nmnat2,1,-1.08,enough cells in well,115,115
Kcnd1,1,-0.19,enough cells in well,222,143
Tcp10b,1,,fewer than 50 cells per well; well left out of calls,136,57.1
Rel,1,0,enough cells in well,342,182
Bhlhe41,1,0.14,enough cells in well,54.9,171
Rtcb,1,-0.15,enough cells in well,223,117
Zup1,1,2.41,enough cells in well,436,132
Mapk1,1,-0.99,enough cells in well,124,112
Hoxa13,1,-0.02,enough cells in well,249,176
Otor,1,0.61,enough cells in well,293,217
Rbp4,1,-0.43,enough cells in well,255,182
Spink4,1,1.43,enough cells in well,178,120
Trmt6,1,,fewer than 50 cells per well; well left out of calls,229,115
Ino80e,1,-0.31,enough cells in well,189,164
Dcun1d3,1,-1,enough cells in well,146,127
Zfr,1,,fewer than 50 cells per well; well left out of calls,69.8,70.3
Zfp811,1,-1.11,enough cells in well,117,93.4
Clptm1,1,1.93,enough cells in well,301,250
Lpcat2,1,-1,enough cells in well,88.5,105

Targets above whose target name begins with E or e (2):
target gene,reagent,Tnf reporter robust z-score,fewer than 50 cells in well,"Tnf reporter intensity, replicate 1","Tnf reporter intensity, replicate 2"
Eogt,1,-0.65,enough cells in well,152,99.3
Egr4,1,0.64,enough cells in well,272,287

The results go on:
target gene,reagent,Tnf reporter robust z-score,fewer than 50 cells in well,"Tnf reporter intensity, replicate 1","Tnf reporter intensity, replicate 2"
Sobp,1,-0.15,enough cells in well,166,59.4
Pon2,1,-1.26,enough cells in well,142,110
Sfxn3,1,1.39,enough cells in well,121,150
En1,1,0.76,enough cells in well,297,280
Tshz3,1,-0.88,enough cells in well,93.4,80.9
Cgas,1,-0.42,enough cells in well,163,84.3
Prima1,1,-1.14,enough cells in well,70.8,88.5
Clstn2,1,2.05,enough cells in well,337,429
Cfap206,1,-1.77 (active),enough cells in well,130,31.6
Tor1a,1,-0.61,enough cells in well,165,183
Ap1s1,1,-0.22,enough cells in well,162,201
Pgap6,1,,fewer than 50 cells per well; well left out of calls,96.7,105
Arcn1,1,,fewer than 50 cells per well; well left out of calls,0,8.96
Apoc3,1,-0.41,enough cells in well,117,178
4930579C12Rik,1,-0.95,enough cells in well,160,38.8
Vmn1r72,1,-0.04,enough cells in well,98.4,104
Vrk2,1,-0.33,enough cells in well,144,127
Ripk3,1,1.06,enough cells in well,272,213
Atg4c,1,,fewer than 50 cells per well; well left out of calls,187,115
Ccdc202,1,0.38,enough cells in well,167,75.6
Ntsr2,1,1.77,enough cells in well,350,165
Aldh1a3,1,-1.31 (active),enough cells in well,78.7,112
Coq5,1,2.88,enough cells in well,311,367
Col10a1,1,-0.04,enough cells in well,203,243
Fnta,1,0.19,enough cells in well,360,172
Atp1a1,1,0.54,enough cells in well,243,155
Osgep,1,2.49,enough cells in well,176,335
Sec23a,1,2.55,enough cells in well,187,190
Rhbdl3,1,-0.2,enough cells in well,120,119
Ntf3,1,-0.32,enough cells in well,223,156
Slc3a1,1,-0.85,enough cells in well,174,90.6
Pcdhga12,1,1.41,enough cells in well,238,176
